In patent US7563621B2, “Absorbing organic reagents into diagnostic test devices by formation of amine salt complexes” (Siemens Healhcare Diagnostics Inc, priority 2003, dated 2009):

Test system: Lambda Light Chain
Assay: Automated protein assay with pyrogallol red salts, 54 μM (Example 5)
Settings: 10 minutes, 37° C, replicates #1 and #2; for 600 nm Absorbance Level, salt with Protein / 900 nm Absorbance Background Level, salt with Protein: Lambda Light Chain 25 mg/dL; for 600 nm Absorbance Level, salt in Phosphate Buffered Saline (No Protein) / 900 nm Absorbance Background Level, salt in Phosphate Buffered Saline (No Protein): Lambda Light Chain row
Description: The dilutor was programmed for reactions of 180 μL reagent+40 μL sample. […] The samples were phosphate buffered saline (blank), human serum albumin (HSA) 25 mg/dL, and other proteins (i.e., human IgG, […], and Lambda Light Chain) at 25 mg/dL. Absorbance rate data were collected on a Biotek, Powerwave X Microplate Absorbance reader using BioTek “KC Jr” software to determine the relative detection of the different proteins (i.e., HSA, human IgG, […], and Lambda Light Chain) using salts of pyrogallol red. Two sets of replicates of the different proteins were run. […] The protein response was determined by subtracting the phosphate buffered saline sample reaction result from the protein reaction result.

SMILES	600 nm Absorbance Level, salt with Protein	900 nm Absorbance Background Level, salt with Protein	600 nm Absorbance Level, salt in Phosphate Buffered Saline (No Protein)	900 nm Absorbance Background Level, salt in Phosphate Buffered Saline (No Protein)
O=c1ccc2c(-c3ccccc3S(=O)(=O)O)c3ccc(O)c(O)c3oc-2c1O [Sodium Pyrogallol Red Salt, pyrogallol red, reference compound]	0.204 and 0.201	0.035 and 0.036	0.198 and 0.196	0.034 and 0.035
O=c1ccc2c(-c3ccccc3S(=O)(=O)O)c3ccc(O)c(O)c3oc-2c1O [Trioctylamine Pyrogallol Red Salt, pyrogallol red]	0.446 and 0.44	0.086 and 0.087	0.485	0.081 and 0.08

Several values for one entry are separate records, joined by “and”; a condition that tells them apart may be missing. Equal entries are not always repeated. Structures can show the parent of a compound that is named as a salt.
